PubChem BioAssay AID743121, NCATS | 2013
Screen: 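Genes whose silencing strengthens cell killing by camptothecin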 (primary screen). Cells: MDA-MB-231 cells, a human breast cancer line. Knock-down reagent: single siRNA against human genes, 20 nM siRNA (0.8 pmol per well). Time to read-out: 120 h (drug added 48 h after transfection, read 72 h later). Challenge: camptothecin 20 nM (about EC30) for 72 h; vehicle 0.1% DMSO in parallel plates. Measured: 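Cell viability by ATP luminescence (CellTiter-Glo) as % of non-targeting siRNA wells, and the log2 ratio of viability without drug over viability with camptothecin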. Scale: log2 vehicle/camptothecin viability: higher = stronger sensitisation to camptothecin. Active means: 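Active genes have an RSA gene-level p-value below 0.001, computed from the ratios of their separate siRNAs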.
The deposit covers about 26,000 reagents; shown is a part drawn at random. Over the whole deposit, 167 (0.63%) are marked active. 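Calls are per gene from RSA p-values that are not deposited; an individual active-marked siRNA can sensitise only weakly.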 A number with no mark means an inactive call. The numbers tell different reagents against one gene apart. Not all columns of the deposit are shown.

MMP20 #1 — log2 vehicle/camptothecin viability = -0.219
MMP20 #2 — log2 vehicle/camptothecin viability = -0.568
MMP20 #3 — log2 vehicle/camptothecin viability = 0.309
MMP20 #4 — log2 vehicle/camptothecin viability = -0.103
LEPR #1 — log2 vehicle/camptothecin viability = -0.205
LEPR #2 — log2 vehicle/camptothecin viability = -0.241
LEPR #3 — log2 vehicle/camptothecin viability = -0.408
LEPR #4 — log2 vehicle/camptothecin viability = 0.586
OR51B2 #1 — log2 vehicle/camptothecin viability = -0.263
OR51B2 #2 — log2 vehicle/camptothecin viability = 0.189
OR51B2 #3 — log2 vehicle/camptothecin viability = -0.408
OR51B2 #4 — log2 vehicle/camptothecin viability = -0.0469
LIG4 #1 — log2 vehicle/camptothecin viability = -0.601
LIG4 #2 — log2 vehicle/camptothecin viability = -0.196
LIG4 #3 — log2 vehicle/camptothecin viability = -0.822
LIG4 #4 — log2 vehicle/camptothecin viability = -0.549
CETP #1 — log2 vehicle/camptothecin viability = -0.343
CETP #2 — log2 vehicle/camptothecin viability = 0.288
CETP #3 — log2 vehicle/camptothecin viability = 0.341
CETP #4 — log2 vehicle/camptothecin viability = -0.49
RBL2 #1 — log2 vehicle/camptothecin viability = 0.0931
RBL2 #2 — log2 vehicle/camptothecin viability = 0.0138
RBL2 #3 — log2 vehicle/camptothecin viability = -0.0985
RBL2 #4 — log2 vehicle/camptothecin viability = 0.317
IAPP #1 — log2 vehicle/camptothecin viability = -0.192
IAPP #2 — log2 vehicle/camptothecin viability = 0.11
IAPP #3 — log2 vehicle/camptothecin viability = -0.647
SLC25A11 #1 — log2 vehicle/camptothecin viability = -0.333
SLC25A11 #2 — log2 vehicle/camptothecin viability = -0.228
SLC25A11 #3 — log2 vehicle/camptothecin viability = -0.5
SLC25A11 #4 — log2 vehicle/camptothecin viability = -0.263
GPRC5C #1 — log2 vehicle/camptothecin viability = -0.354
GPRC5C #2 — log2 vehicle/camptothecin viability = -0.212
GPRC5C #3 — log2 vehicle/camptothecin viability = -0.249
GPRC5C #4 — log2 vehicle/camptothecin viability = 0.22
SYVN1 #1 — log2 vehicle/camptothecin viability = -0.257
SYVN1 #2 — log2 vehicle/camptothecin viability = 0.296
SYVN1 #3 — log2 vehicle/camptothecin viability = -0.134
SYVN1 #4 — log2 vehicle/camptothecin viability = -0.0893
ADA2 #1 — log2 vehicle/camptothecin viability = 0.348
ADA2 #2 — log2 vehicle/camptothecin viability = 0.035
ADA2 #3 — log2 vehicle/camptothecin viability = -0.34
MMP3 #1 — log2 vehicle/camptothecin viability = 0.113
MMP3 #2 — log2 vehicle/camptothecin viability = -0.559
MMP3 #3 — log2 vehicle/camptothecin viability = 0.764
MMP3 #4 — log2 vehicle/camptothecin viability = -0.27

As entered above:
LIG4 #1, log2 vehicle/camptothecin viability → -0.601
Result for LIG4 #3 under “log2 vehicle/camptothecin viability”: -0.822
For “log2 vehicle/camptothecin viability”, RBL2 #3 reads -0.0985
For “log2 vehicle/camptothecin viability”, ADA2 #3 reads -0.34
For “log2 vehicle/camptothecin viability”, RBL2 #4 shows 0.317
Value of MMP3 #3 in “log2 vehicle/camptothecin viability”: 0.764
